Consider 1 substance from paper doi:10.1101/2024.08.06.606738.

The chains behind the UniProt entries cited, without tags or fusion partners. Where a name states a change or a piece, a line headed by the entry shows the natural chain unless it says otherwise.
UniProt Q9UKA4, whole entry: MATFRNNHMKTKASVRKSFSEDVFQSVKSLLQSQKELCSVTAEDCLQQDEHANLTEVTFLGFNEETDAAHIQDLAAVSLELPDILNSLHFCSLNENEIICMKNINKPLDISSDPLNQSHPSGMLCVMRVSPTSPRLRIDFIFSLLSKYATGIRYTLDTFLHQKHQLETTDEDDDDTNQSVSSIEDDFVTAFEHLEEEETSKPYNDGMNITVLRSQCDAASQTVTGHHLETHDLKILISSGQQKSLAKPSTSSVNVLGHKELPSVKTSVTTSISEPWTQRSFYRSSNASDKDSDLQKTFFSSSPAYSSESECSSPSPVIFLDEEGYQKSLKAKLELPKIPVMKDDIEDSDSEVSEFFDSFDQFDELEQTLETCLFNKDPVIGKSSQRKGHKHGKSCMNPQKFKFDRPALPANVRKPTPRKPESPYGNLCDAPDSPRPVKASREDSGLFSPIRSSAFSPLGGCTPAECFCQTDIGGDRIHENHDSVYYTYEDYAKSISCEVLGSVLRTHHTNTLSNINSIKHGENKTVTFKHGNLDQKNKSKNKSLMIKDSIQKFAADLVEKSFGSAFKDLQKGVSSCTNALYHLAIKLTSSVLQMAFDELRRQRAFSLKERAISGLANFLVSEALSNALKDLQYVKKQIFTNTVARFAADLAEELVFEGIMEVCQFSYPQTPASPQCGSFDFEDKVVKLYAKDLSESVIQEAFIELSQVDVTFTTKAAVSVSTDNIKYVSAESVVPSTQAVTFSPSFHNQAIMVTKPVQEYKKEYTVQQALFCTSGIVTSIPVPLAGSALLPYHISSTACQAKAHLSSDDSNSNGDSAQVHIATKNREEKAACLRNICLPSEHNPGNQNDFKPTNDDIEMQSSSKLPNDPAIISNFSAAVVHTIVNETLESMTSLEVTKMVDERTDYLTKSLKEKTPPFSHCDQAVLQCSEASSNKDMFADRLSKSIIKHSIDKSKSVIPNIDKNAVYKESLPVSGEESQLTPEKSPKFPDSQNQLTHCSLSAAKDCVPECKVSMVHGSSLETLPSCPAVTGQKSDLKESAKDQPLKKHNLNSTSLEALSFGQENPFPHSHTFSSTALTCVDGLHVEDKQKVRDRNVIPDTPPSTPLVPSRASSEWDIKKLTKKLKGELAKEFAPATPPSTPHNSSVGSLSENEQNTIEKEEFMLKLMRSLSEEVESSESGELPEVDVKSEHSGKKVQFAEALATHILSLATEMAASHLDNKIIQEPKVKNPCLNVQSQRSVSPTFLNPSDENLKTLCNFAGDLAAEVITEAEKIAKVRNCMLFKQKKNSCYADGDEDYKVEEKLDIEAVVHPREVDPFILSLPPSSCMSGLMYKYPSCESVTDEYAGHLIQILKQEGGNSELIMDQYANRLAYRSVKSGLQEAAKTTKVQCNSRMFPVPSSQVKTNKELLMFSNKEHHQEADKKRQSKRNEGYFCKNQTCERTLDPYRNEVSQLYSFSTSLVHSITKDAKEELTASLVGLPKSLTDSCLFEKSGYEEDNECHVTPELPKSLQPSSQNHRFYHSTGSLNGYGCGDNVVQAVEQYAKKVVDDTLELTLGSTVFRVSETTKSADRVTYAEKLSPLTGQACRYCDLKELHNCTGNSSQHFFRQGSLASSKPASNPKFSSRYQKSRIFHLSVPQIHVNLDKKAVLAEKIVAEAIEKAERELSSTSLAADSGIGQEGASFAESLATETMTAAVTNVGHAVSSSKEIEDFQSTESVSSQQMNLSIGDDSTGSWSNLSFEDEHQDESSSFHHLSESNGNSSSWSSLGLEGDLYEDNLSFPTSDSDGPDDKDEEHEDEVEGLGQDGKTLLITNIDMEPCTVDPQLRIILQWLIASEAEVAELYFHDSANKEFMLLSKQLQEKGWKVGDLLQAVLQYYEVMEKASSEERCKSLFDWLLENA
UniProt P10644, whole entry: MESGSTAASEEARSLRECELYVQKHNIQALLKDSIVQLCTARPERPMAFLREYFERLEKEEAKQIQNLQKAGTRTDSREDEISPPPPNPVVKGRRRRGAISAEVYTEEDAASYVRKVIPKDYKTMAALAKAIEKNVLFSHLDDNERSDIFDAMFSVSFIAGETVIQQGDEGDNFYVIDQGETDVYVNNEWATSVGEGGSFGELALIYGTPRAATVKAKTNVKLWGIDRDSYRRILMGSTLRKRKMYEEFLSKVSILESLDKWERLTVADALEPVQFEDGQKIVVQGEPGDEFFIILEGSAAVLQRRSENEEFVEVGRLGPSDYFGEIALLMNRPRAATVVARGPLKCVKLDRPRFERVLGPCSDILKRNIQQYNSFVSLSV

Results are given in words; binding and its absence hold for the method and conditions named. Binding seen in cells or lysates may run through a third protein. Some binding calls cover weakened binding; strength is not graded here.

Assay [1] concerns the target HA-tagged AKAP11, wild type (human) (UniProt Q9UKA4). The assay is described as follows: co-IP.
Assay [2] addresses HA-tagged AKAP11 4ALIR mutant (WSNL>AAAA) (human) (UniProt Q9UKA4). Nature of the assay: co-IP.

“PKA regulatory subunit RIα, endogenous (from UniProt P10644 1-381)”: the binding entry in assay [1] and in assay [2] was “binds” in each case.
